{"sequences": {"note": "Amino acid sequences for entries named in this document (tags omitted).", "UniProt P08631": "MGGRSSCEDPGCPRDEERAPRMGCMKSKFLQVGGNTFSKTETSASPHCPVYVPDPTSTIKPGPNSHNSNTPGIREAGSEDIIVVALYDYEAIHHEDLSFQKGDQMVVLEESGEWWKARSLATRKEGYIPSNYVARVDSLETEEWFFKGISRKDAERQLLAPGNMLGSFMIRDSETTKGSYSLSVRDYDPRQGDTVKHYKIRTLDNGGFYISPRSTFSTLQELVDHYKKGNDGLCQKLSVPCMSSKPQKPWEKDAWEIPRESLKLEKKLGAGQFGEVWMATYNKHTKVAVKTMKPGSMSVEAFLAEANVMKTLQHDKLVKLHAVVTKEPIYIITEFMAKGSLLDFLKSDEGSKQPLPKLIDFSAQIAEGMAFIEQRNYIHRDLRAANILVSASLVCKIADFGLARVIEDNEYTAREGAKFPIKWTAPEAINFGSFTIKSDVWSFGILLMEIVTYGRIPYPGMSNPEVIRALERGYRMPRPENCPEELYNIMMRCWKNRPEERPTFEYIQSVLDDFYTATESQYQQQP", "UniProt P40763": "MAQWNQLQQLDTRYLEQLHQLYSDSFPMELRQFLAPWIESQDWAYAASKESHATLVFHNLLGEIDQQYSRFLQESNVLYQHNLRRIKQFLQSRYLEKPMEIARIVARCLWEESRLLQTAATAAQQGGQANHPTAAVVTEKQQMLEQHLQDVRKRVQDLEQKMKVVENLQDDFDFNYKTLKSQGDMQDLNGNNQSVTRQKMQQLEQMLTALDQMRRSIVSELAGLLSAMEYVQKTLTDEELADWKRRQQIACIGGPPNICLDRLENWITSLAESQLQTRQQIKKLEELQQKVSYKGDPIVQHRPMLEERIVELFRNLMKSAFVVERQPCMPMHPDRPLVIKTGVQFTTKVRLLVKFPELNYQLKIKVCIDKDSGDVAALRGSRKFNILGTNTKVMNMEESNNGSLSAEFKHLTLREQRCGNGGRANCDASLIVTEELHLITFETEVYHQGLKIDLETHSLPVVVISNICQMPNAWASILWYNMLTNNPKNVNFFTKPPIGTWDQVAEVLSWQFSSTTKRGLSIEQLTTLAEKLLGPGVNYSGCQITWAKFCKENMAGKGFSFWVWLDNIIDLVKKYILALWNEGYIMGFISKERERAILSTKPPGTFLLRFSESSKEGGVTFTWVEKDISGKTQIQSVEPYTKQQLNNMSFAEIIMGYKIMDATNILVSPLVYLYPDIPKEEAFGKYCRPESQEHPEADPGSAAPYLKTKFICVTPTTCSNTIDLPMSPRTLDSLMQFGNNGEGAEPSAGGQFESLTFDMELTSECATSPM"}, "source": "paper PMC8882672", "key": {"BMX": {"target": "T1, BMX (UniProt P51813)", "T1 sequence": "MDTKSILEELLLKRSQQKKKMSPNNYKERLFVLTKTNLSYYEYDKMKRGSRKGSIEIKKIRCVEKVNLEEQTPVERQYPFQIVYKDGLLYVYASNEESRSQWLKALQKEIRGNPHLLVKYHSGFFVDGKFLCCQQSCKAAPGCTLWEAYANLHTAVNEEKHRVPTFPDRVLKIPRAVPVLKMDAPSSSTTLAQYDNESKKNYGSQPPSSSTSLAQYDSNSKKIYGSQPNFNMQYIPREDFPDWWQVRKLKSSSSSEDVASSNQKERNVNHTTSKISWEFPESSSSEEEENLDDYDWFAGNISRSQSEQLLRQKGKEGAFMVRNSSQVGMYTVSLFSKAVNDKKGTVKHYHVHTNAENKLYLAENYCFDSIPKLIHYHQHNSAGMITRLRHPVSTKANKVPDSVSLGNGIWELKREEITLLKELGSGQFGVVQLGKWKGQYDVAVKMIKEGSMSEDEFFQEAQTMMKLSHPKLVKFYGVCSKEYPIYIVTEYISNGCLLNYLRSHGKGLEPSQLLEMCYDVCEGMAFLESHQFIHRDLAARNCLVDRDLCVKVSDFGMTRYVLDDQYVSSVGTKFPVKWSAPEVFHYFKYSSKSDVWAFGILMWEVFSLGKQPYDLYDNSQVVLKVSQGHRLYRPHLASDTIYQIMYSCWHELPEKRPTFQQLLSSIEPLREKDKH", "test": "co-IP; NCM460 cells infected with vector-, BMX- or HCK-overexpressing construct; cell lysates incubated with FLAG antibody at 4 °C for 4 h, protein G-agarose beads at 4 °C overnight; beads washed with PBS with 0.1% Tween 20; western blot"}, "HCK": {"target": "HCK (UniProt P08631)", "test": "co-IP; NCM460 cells infected with vector-, BMX- or HCK-overexpressing construct; cell lysates incubated with FLAG antibody at 4 °C for 4 h, protein G-agarose beads at 4 °C overnight; beads washed with PBS with 0.1% Tween 20; western blot"}}, "note": "These are yes or no findings as the source states them, for the method shown. Binding seen in cells or lysates may run through a third protein. Some results given as binding are weak or reduced against the parent protein; the word gives no strength."}
{"substance": "STAT3 (from UniProt P40763 1-770)", "values": [{"measurement": "binding", "setting": "BMX", "value": "binds"}, {"measurement": "binding", "setting": "HCK", "value": "binds"}]}
